Test results taken from PMC4001239.
These are yes or no findings as the source states them, for the method shown. In cells and extracts the contact can be indirect. Some binding calls cover weakened binding; strength is not graded here. For some assays here: Where a sequence is shown, tags or fusion partners need not be part of it.

T1: 6myc-Erv46 (S. cerevisiae) (UniProt P39727)
T1 sequence: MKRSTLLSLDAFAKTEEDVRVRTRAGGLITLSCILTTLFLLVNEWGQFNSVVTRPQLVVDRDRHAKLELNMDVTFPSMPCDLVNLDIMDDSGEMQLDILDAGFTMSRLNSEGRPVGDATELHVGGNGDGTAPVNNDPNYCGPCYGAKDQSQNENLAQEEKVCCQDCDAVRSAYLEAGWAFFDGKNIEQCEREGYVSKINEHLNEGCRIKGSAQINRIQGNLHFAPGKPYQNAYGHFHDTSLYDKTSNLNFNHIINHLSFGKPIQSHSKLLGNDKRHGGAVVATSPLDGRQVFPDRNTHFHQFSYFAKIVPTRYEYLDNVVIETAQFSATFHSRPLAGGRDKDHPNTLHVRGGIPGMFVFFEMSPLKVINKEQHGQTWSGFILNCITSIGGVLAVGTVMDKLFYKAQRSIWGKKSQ

T2: Ktr4-3HA (S. cerevisiae) (UniProt P38131)
T2 sequence: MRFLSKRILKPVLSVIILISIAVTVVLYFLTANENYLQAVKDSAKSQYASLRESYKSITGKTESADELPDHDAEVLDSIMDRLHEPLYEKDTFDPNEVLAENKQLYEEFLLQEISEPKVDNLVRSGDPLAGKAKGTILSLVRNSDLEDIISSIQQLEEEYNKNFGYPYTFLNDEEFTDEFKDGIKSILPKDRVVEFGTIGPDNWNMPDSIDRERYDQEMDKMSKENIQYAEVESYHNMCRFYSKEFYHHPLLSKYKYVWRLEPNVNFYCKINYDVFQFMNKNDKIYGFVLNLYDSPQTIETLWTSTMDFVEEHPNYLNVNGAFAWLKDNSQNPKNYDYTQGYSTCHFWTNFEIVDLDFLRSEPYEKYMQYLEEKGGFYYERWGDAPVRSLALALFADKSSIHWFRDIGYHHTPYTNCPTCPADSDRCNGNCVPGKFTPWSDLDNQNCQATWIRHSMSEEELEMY

T3: Ktr1-3HA (S. cerevisiae) (UniProt P27810)
T3 sequence: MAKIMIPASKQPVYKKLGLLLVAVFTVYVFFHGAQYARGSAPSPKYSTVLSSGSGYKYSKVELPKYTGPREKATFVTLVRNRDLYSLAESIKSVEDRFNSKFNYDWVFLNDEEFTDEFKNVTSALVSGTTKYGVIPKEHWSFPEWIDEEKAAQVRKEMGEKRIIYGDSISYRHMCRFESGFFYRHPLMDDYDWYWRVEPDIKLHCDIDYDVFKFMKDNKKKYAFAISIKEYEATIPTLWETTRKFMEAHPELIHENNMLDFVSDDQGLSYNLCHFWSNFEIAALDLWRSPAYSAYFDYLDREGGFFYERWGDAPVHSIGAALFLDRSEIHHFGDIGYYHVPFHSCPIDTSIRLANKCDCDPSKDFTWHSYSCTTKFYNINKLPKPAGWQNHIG

T4: Kre2-3HA (S. cerevisiae) (UniProt P27809)
T4 sequence: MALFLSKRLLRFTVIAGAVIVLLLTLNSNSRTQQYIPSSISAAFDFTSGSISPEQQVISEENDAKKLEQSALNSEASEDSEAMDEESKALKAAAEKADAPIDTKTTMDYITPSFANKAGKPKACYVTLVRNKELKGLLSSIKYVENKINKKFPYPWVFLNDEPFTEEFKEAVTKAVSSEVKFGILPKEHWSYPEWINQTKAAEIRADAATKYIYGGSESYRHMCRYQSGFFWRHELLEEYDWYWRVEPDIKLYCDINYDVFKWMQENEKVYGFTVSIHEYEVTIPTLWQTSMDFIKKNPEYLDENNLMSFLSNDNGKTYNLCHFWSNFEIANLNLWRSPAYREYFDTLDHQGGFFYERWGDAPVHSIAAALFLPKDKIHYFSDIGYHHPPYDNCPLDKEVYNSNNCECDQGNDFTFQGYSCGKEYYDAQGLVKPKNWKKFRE

T5: 6myc-Erv41 (S. cerevisiae) (UniProt Q04651)
T5 sequence: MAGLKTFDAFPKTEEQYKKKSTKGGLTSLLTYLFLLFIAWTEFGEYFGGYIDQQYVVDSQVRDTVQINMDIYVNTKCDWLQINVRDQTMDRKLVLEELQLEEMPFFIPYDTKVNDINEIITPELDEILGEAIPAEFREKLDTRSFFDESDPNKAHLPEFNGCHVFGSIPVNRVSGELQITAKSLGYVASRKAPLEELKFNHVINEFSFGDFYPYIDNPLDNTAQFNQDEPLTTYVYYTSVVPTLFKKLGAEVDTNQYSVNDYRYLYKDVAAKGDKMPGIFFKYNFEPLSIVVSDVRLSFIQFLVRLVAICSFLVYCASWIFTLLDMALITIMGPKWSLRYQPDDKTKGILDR


Experiments:
[1] = biological target: T1, 6myc-Erv46 (S. cerevisiae); assay: co-IP; Δerv41 or Δerv46 cells expressing 6myc-Erv41 or 6myc-Erv46 and Ktr4-3HA or Ktr3-3HA; glass-bead lysate solubilized with 1% Triton X-100 (text; the legend says prepared as in Fig. 4); precipitated with anti-myc mAb 9E10; blotted with anti-HA, and with anti-Erv41 and anti-Erv46
Ktr4-3HA (S. cerevisiae) [2] = biological target: T2, Ktr4-3HA (S. cerevisiae); assay: co-IP; Δsvp26 strains expressing HA-tagged Kre2-family proteins and Svp26-FLAG; glass-bead lysate solubilized with 1% digitonin; precipitated with anti-HA mAb; Svp26-FLAG detected with anti-FLAG mAb
Ktr1-3HA (S. cerevisiae) = biological target: T3, Ktr1-3HA (S. cerevisiae); assay: as above
Kre2-3HA (S. cerevisiae) = biological target: T4, Kre2-3HA (S. cerevisiae); assay: as above
[3] = biological target: T5, 6myc-Erv41 (S. cerevisiae); assay: co-IP; Δerv41 or Δerv46 cells expressing 6myc-Erv41 or 6myc-Erv46 and Ktr4-3HA or Ktr3-3HA; glass-bead lysate solubilized with 1% Triton X-100 (text; the legend says prepared as in Fig. 4); precipitated with anti-myc mAb 9E10; blotted with anti-HA, and with anti-Erv41 and anti-Erv46
Ktr4-3HA (S. cerevisiae) [4] = biological target: T2, Ktr4-3HA (S. cerevisiae); assay: co-IP; strains with Erv41 or Erv41ΔC and Ktr4-3HA; lysate solubilized with 1% digitonin; proteins co-immunoprecipitated with Ktr4-3HA blotted with anti-Erv41

binding [1] | binding [3] | Binder | also measured
binds |  | Erv41 (protein, UniProt Q04651 1-352) MAGLKTFDAFPKTEEQYKKKSTKGGLTSLLTYLFLLFIAWTEFGEYFGGYIDQQYVVDSQVRDTVQINMDIYVNTKCDWLQINVRDQTMDRKLVLEELQLEEMPFFIPYDTKVNDINEIITPELDEILGEAIPAEFREKLDTRSFFDESDPNKAHLPEFNGCHVFGSIPVNRVSGELQITAKSLGYVASRKAPLEELKFNHVINEFSFGDFYPYIDNPLDNTAQFNQDEPLTTYVYYTSVVPTLFKKLGAEVDTNQYSVNDYRYLYKDVAAKGDKMPGIFFKYNFEPLSIVVSDVRLSFIQFLVRLVAICSFLVYCASWIFTLLDMALITIMGPKWSLRYQPDDKTKGILDR | 
 |  | Svp26-FLAG (protein, UniProt P38869 1-228) MLLELISYAGTVSGFLFLTLSIASGLYYISELVEEHTEPTRRFLTRAIYGIILILILLLLLDGFPFKLTLFSIACYIVYYQNLKSFPFISLTSPTFLLSCVCVVLNHYFWFKYFNDTEVPPQFKFDPNYIPRRRASFAEVASFFGICVWFIPFALFVSLSAGDYVLPTTSEQHMAKKNDDITTNNQPKFRKRAVGLARVVINSVRKYIYSLARVFGYEIEPDFDRLAV | binding (Ktr4-3HA (S. cerevisiae) [2]): binds weakly; binding (Ktr1-3HA (S. cerevisiae)): binds; binding (Kre2-3HA (S. cerevisiae)): binds weakly
 | binds | Erv46 (protein, UniProt P39727 1-415) MKRSTLLSLDAFAKTEEDVRVRTRAGGLITLSCILTTLFLLVNEWGQFNSVVTRPQLVVDRDRHAKLELNMDVTFPSMPCDLVNLDIMDDSGEMQLDILDAGFTMSRLNSEGRPVGDATELHVGGNGDGTAPVNNDPNYCGPCYGAKDQSQNENLAQEEKVCCQDCDAVRSAYLEAGWAFFDGKNIEQCEREGYVSKINEHLNEGCRIKGSAQINRIQGNLHFAPGKPYQNAYGHFHDTSLYDKTSNLNFNHIINHLSFGKPIQSHSKLLGNDKRHGGAVVATSPLDGRQVFPDRNTHFHQFSYFAKIVPTRYEYLDNVVIETAQFSATFHSRPLAGGRDKDHPNTLHVRGGIPGMFVFFEMSPLKVINKEQHGQTWSGFILNCITSIGGVLAVGTVMDKLFYKAQRSIWGKKSQ | 
binds | no binding | Ktr4-3HA (protein, UniProt P38131 1-464) MRFLSKRILKPVLSVIILISIAVTVVLYFLTANENYLQAVKDSAKSQYASLRESYKSITGKTESADELPDHDAEVLDSIMDRLHEPLYEKDTFDPNEVLAENKQLYEEFLLQEISEPKVDNLVRSGDPLAGKAKGTILSLVRNSDLEDIISSIQQLEEEYNKNFGYPYTFLNDEEFTDEFKDGIKSILPKDRVVEFGTIGPDNWNMPDSIDRERYDQEMDKMSKENIQYAEVESYHNMCRFYSKEFYHHPLLSKYKYVWRLEPNVNFYCKINYDVFQFMNKNDKIYGFVLNLYDSPQTIETLWTSTMDFVEEHPNYLNVNGAFAWLKDNSQNPKNYDYTQGYSTCHFWTNFEIVDLDFLRSEPYEKYMQYLEEKGGFYYERWGDAPVRSLALALFADKSSIHWFRDIGYHHTPYTNCPTCPADSDRCNGNCVPGKFTPWSDLDNQNCQATWIRHSMSEEELEMY | 
 |  | Erv41ΔC (domain or fragment, UniProt Q04651 1-339) MAGLKTFDAFPKTEEQYKKKSTKGGLTSLLTYLFLLFIAWTEFGEYFGGYIDQQYVVDSQVRDTVQINMDIYVNTKCDWLQINVRDQTMDRKLVLEELQLEEMPFFIPYDTKVNDINEIITPELDEILGEAIPAEFREKLDTRSFFDESDPNKAHLPEFNGCHVFGSIPVNRVSGELQITAKSLGYVASRKAPLEELKFNHVINEFSFGDFYPYIDNPLDNTAQFNQDEPLTTYVYYTSVVPTLFKKLGAEVDTNQYSVNDYRYLYKDVAAKGDKMPGIFFKYNFEPLSIVVSDVRLSFIQFLVRLVAICSFLVYCASWIFTLLDMALITIMGPKWSLR | binding (Ktr4-3HA (S. cerevisiae) [4]): binds
